{
  "source": "paper doi:10.1101/2023.05.23.542025",
  "binders": {"B1": {"name": "endogenous STAT6 (protein, UniProt P52633 1-837)", "chain": "MSLWGLISKMSPEKLQRLYVDFPQRLRHLLADWLESQPWEFLVGSDAFCYNMASALLSATVQRLQATAGEQGKGNSILPHISTLESIYQRDPLKLVATIRQILQGEKKAVIEEFRHLPGPFHRKQEELKFTTALGRLQHRVRETRLLRESLQQGAKTGQVSLQNLIDPPVNGPGPSEDLATMLQGTVGDLEATQALVLKRIQIWKRQQQLAGNGTPFEESLAGLQERCESLVEIYSQLQQEIGAASGELEPKTRASLISRLDEVLRTLVTSSFLVEKQPPQVLKTQTKFQAGVRFLLGLQFLGTSAKPPMVRADMVTEKQARELSLAQGPGTGVESTGEIMNNTVPLENSIPSNCCSALFKNLLLKKIKRCERKGTESVTEEKCAVLFSTSFTLGPNKLLIQLQALSLPLVVIVHGNQDNNAKATILWDNAFSEMDRVPFVVAERVPWEKMCETLNLKFMAEVGTSRGLLPEHFLFLAQKIFNDNSLSVEAFQHRCVSWSQFNKEILLGRGFTFWQWFDGVLDLTKRCLRSYWSDRLIIGFISKQYVTSLLLNEPDGTFLLRFSDSEIGGITIAHVIRGQDGSSQIENIQPFSAKDLSIRSLGDRIRDLAQLKNLYPKKPKDEAFRSHYKPEQMGKDGRGYVSTTIKMTVERDQPLPTPEPQMPAMVPPYDLGMAPDASMQLSSDMGYPPQSIHSFQSLEESMSVLPSFQEPHLQMPPNMSQITMPFDQPHPQGLLQCQSQEHAVSSPEPMLCSDVTMVEDSCLTQPVGGFPQGTWVSEDMYPPLMPPTEQDLTKLLLENQGEAGGSLGSQPLLQPSPYGQSGISLSHLDLRTNPSW"}},
  "target": "GST-fused CBP deletion mutant, C/H3 domain (Lane 5)",
  "test": "pull-down",
  "note": "No constants are given. Whether binding was seen depends on the method and setting. In cells and extracts the contact can be indirect. Binding calls can cover weak binding; strength is not graded here.",
  "data": [
    {"binder": "B1", "values": [
      {"measurement": "binding", "result": "binds"}
    ]}
  ]
}
